Test results as given in PMC10284394.
These are yes or no findings as the source states them, for the method shown. In cells and extracts the contact can be indirect. A yes stands for co-enrichment or nearness to the bait. Other partners may have been found. Sequences can lack the tags named with a protein.

Chains of the proteins cited; added tags and fusions are not shown.
UniProt P21707: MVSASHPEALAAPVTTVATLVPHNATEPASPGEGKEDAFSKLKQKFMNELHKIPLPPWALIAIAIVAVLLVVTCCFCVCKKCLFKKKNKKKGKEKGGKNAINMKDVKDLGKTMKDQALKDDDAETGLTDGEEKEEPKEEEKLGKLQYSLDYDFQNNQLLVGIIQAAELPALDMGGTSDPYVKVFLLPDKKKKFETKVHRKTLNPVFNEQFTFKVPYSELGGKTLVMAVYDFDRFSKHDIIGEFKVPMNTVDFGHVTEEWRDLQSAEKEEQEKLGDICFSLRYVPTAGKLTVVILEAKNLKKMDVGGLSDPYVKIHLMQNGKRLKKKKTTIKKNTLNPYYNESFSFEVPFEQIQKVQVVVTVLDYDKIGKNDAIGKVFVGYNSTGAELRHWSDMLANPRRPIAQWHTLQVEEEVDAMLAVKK

Target: T1, GST-Rab26WT (UniProt Q9ULW5)
T1 sequence: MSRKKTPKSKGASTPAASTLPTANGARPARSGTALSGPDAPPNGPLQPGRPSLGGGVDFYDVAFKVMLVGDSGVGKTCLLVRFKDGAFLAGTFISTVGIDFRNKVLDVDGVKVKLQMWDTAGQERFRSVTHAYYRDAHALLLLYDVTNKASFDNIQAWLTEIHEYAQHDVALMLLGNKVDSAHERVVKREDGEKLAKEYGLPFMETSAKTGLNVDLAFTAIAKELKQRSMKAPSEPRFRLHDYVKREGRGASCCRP
Test: affinity purification with mass spectrometry; large-scale GST pull-down with GST-Rab26QL, Rab26TN and Rab26WT from rat brain tissue lysate (legend: mouse liver lysate); SDS-PAGE, silver staining, LC-MS; only the target purified

binding: binds
Substance: endogenous Synaptotagmin-1 (tissue lysate of the large-scale pull-down) (from UniProt P21707 1-421)
